Test results taken from US10203334B2, “Methods and compositions related to nucleic acid binding assays” (Nubad, LLC, priority 2012, dated 2019).

Tested on: d(CCCCGGGG)2
Experiment: Fluorescein-neomycin fluorescence quenching by DNA duplex
Assay type: binding
Protocol: It has been shown that the fluorescence of a fluorescein-neomycin is quenched when bound to a nucleic acid target. In continued efforts to expand the applications of the fluorescein-neomycin conjugate, a fluorescence quenching study was performed to determine if the quenching of fluorescein-neomycin in the presence of DNA is representative of the neomycin affinity. Previous studies using the duplexes d(GGGGCCCC)2 and d(CCCCGGGG)2 have shown the binding is lower for d(CCCCGGGG)2. This has been shown from the ITC derived binding constants, FID studies, and electrostatic potential studies. […] For this reason the fluorescence quenching of fluorescein-neomycin with d(GGGGCCCC)2 and d(CCCCGGGG)2 was performed at three different buffer salt concentrations. […] Results from this study show here that the fluorescein-neomycin quenching can be applied to screening the 256 GC rich hairpins to identify which sequence neomycin has the highest affinity. Table 2 represents the change in fluorescence (%) values of fluorescein-neomycin with 1rdr d(GGGGCCCC)2 and d(CCCCGGGG)2 in 3 different buffer salt concentrations and the ratio between the change in fluorescence (%) values of F-neo with d(CCCCGGGG)2 compared to d(GGGGCCCC)2. Fluorescein-neomycin=1 μM, Buffer=10 mM SC, 0.5 mM EDTA, and either 50 mM NaCl, 100 mM NaCl, or 150 mM NaCl (pH=6.8). Experiment was performed in triplicate and the results were also polted in FIG. 10 showing the change in fluorescence (%) of fluorescein-neomycin with 1 equivalent d(GGGGCCCC)2 and d(CCCCGGGG)2 in 3 different buffer salt concentrations.

## NCC1O[C@H](OC2C(O)C(OC3C(O)[C@H](N)CC(N)[C@H]3O[C@H]3OC(CN)[C@@H](O)C(O)C3N)O[C@@H]2CSCCNC(=O)CCSCC(=O)Nc2ccc(-c3c4ccc(=O)cc-4oc4cc(O)ccc34)c(C(=O)O)c2)C(N)C(O)[C@@H]1O (stereo partly drawn) [F-neo (42a), Neomycin-Fluorescein Conjugate]
50 mM NaCl
  Ratio of ΔF (%) with d(CCCCGGGG)2/ d(GGGGCCCC)2: 0.65
100 mM NaCl
  Ratio of ΔF (%) with d(CCCCGGGG)2/ d(GGGGCCCC)2: 0.65
150 mM NaCl
  Ratio of ΔF (%) with d(CCCCGGGG)2/ d(GGGGCCCC)2: 0.60
